Assay results published in PubChem BioAssay AID651640 (Broad Institute, 2012).
Among all 350,000 compounds or so, about 6,000 (1.7%) were called active. Inconclusive results, whose numbers are uncertain, are shown with a selection of clear calls. Rule as the data show it: active = CPE inhibition above about 20% (passing the limit was not always enough); inconclusive = no clear call, values can overlap the other calls; tested in BHK-21 cells.

assay: protection of cells from dengue 2 killing – plate reader, single concentration, primary screen (AID 651640); conditions: DENV2-infected cells, cytopathic effect rescue, at 9.99 µM, stronger effect = higher value;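 also: 0% = median of neutral control wells and 100% = median of positive control wells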

Row | SMILES | CPE inhibition
1 | C[C@H](CO)N1C[C@H](C)[C@@H](CN(C)Cc2ccccc2)Oc2c(NS(=O)(=O)c3ccc(F)cc3)cccc2C1=O | inconclusive: 20.1%
2 | CC(C)[C@@H]1CC[C@@H](C)C[C@H]1O | inactive: -1.59%
3 | C[C@@H]1CN([C@@H](C)CO)C(=O)Cc2cc(NC(=O)Nc3ccc(F)cc3)ccc2O[C@H]1CN(C)C | inactive: 13.2%
4 | O=C(C1CCCCC1)N1CC2(C1)[C@H](c1ccccc1)[C@H](CO)N2C(=O)c1cccnc1 | active: 27.7%
5 | O=C(C[C@@H]1C=C[C@H](NC(=O)c2cccc(F)c2)[C@H](CO)O1)NCc1ccccc1 | inactive: 2.38%
6 | CCc1cc2c(=O)n(CCCOC)c(SCC(=O)Nc3oc(C)c4c(C)n[nH]c(=O)c34)nc2s1 | inconclusive: 24.4%
7 | CCCN1[C@H](C(=O)NCCOC)[C@@H](CO)[C@@H]2Cn3c(ccc(-c4cccc(C(=O)N(C)C)c4)c3=O)[C@@H]21 | inconclusive: 42.2%
8 | Cc1cc(N2CCN(C(=O)c3[nH]c(C(F)(F)F)nc3-c3ccccc3)CC2)c2ccccc2n1 | inconclusive: 20.6%
9 | CCOc1ccc(N2C(=O)CC(N3CCN(c4ccc(Cl)cc4)CC3)C2=O)cc1 (stereo not given) | inconclusive: 26.3%
10 | CCCn1c(SCC(=O)Nc2ccc(S(=O)(=O)N3CCOCC3)cc2)n[nH]c1=O | inconclusive: 37.7%
11 | CNc1c([N+](=O)[O-])cnn1-c1ccccn1 | inconclusive: 34.4%
12 | C[C@@H]1CN([C@@H](C)CO)C(=O)c2cc(-c3ccccc3)cnc2O[C@@H]1CN(C)Cc1ccc(C(=O)O)cc1 | inactive: -1.34%
13 | Cc1ccc(S(=O)(=O)N2CCC(C(=O)Nc3ccc(S(=O)(=O)N4CCCC4)cc3)CC2)cc1C | inconclusive: 21.8%
14 | CN(C)C(=O)C[C@@H]1CC[C@@H]2[C@H](COc3ccc(NC(=O)C4CC4)cc3C(=O)N2C)O1 | inconclusive: 77.2%
15 | COc1ccccc1N1CCN(Cc2cc(Br)c(O)c3ncccc23)CC1 | inactive: 1.13%
16 | CCCCn1c(N)c(N(CCOC)C(=O)COC(=O)c2cc(CCC)c(C)s2)c(=O)[nH]c1=O | inactive: -0.367%
17 | CCOC(=O)N1CCC(Nc2cc(C)nc3c(-c4ccccc4OC)c(C)nn23)CC1 | inconclusive: 32.3%
18 | O=C(NC1CCCC1)N1CCCCN2[C@@H](CO)[C@@H](c3ccc(-c4cccnc4)cc3)[C@@H]2C1 | inactive: -2.34%
19 | CCS(=O)(=O)Nc1ccc2c(c1)C(=O)N(C)[C@@H]1CC[C@H](CC(=O)NC3CCCCC3)O[C@H]1CO2 | active: 76.3%
20 | C#CCOCCOCCOCCNc1nc(N2CCN(C(=O)CCCCCCCCCCNC(=O)[C@H](CO)n3cc(CCCSC)nn3)CC2)nc(N2CCN(C(=O)CCCCCCCCCCNC(=O)[C@H](CO)n3cc(CCCSC)nn3)CC2)n1 | active: 121%
21 | CO[C@H]1CN(C)C(=O)c2cc(NC(=O)c3nc4ccccc4s3)ccc2OC[C@H](C)N(Cc2cccnc2)C[C@@H]1C | active: 21.1%
22 | COCC#Cc1ccc([C@H]2[C@H](CO)N3CCCCN(S(=O)(=O)c4ccc(OC)cc4)C[C@@H]23)cc1 | active: 62.1%
23 | CCCNC(=O)N(C)C[C@@H]1Oc2ncc(-c3ccc(C(=O)N(C)C)cc3)cc2C(=O)N([C@H](C)CO)C[C@@H]1C | inactive: -5.66%
24 | CC(C)[N+](C)(C)CC#CC(O)(c1ccccc1)c1ccccc1 | inactive: 16.9%
25 | CCCC#Cc1ccc2c(c1)O[C@@H](CN(C)CC1CCCC1)[C@H](C)CN([C@H](C)CO)S2(=O)=O | active: 60.2%

Row | SMILES | CPE inhibition
26 | Cc1cccc(C(=O)NC(=O)Nc2c(C)cc(C)nc2C)c1 | inconclusive: 24.7%
27 | O=C(Nc1ccc(O)c2c(=O)cc(-c3cccc(Cl)c3)oc12)c1ccccc1Cl | inconclusive: 22.3%
28 | CSc1nc2ccc(NC(=O)C3=NN(c4ccccc4)C(=O)CC3)cc2s1 | inactive: 4.03%
29 | C[C@H]1CN([C@@H](C)CO)C(=O)c2cccc(NC(=O)Nc3ccc4c(c3)OCO4)c2O[C@@H]1CN(C)S(=O)(=O)c1ccc(Cl)cc1 | inconclusive: 34.1%
30 | C[C@H](CO)N1C[C@H](C)[C@@H](CN(C)CC2CC2)Oc2c(NC(=O)Nc3ccc(F)cc3)cccc2C1=O | inactive: 15.3%
31 | CCCCn1c(CNC(=O)CCC)nc2ccccc21 | inconclusive: 37.6%
32 | C[C@H]1CN([C@@H](C)CO)S(=O)(=O)c2ccc(C#CC3CC3)cc2O[C@@H]1CN(C)C(=O)c1cccc(F)c1 | inconclusive: 31.6%
33 | CC(C)CNc1ncnc2c1ncn2[C@H]1CN(Cc2ccc3c(c2)OCO3)C[C@@H](CO)O1 | inconclusive: 21.7%
34 | O=C1NC2(CCCCC2)CO1 | inconclusive: 35.2%
35 | Cc1nc2ccccc2c(=O)n1CCCN1CCOCC1 | inactive: 2.54%
36 | Cc1nn(CCCC(=O)NCc2ccc(F)cc2)c(C)c1[N+](=O)[O-] | inconclusive: 94.4%
37 | COc1cccc(C(=O)NNS(=O)(=O)c2ccc(F)cc2)c1 | inconclusive: 36.3%
38 | O=C(O)C1=C[C@@H](C2CCCCC2)C[C@@H](OCc2ccc(CO)cc2)O1 | inconclusive: 61%
39 | CCCNC(=O)Nc1ccc2c(c1)OC[C@H](C)N(C(=O)CC)C[C@H](C)[C@@H](OC)CN(C)C2=O | active: 31.4%
40 | COC(=O)[C@]12C[C@H](CC(=O)NCCCN3CCCC3=O)C(=O)N(CCC3=CCCCC3)C1=C[C@H](C(C)(C)C)O[C@@H]2C | inactive: -2.25%
41 | CN(C(=O)c1ccc(NC(=O)C2CCN(C(=O)OC(C)(C)C)CC2)cc1)C1CCC1 | inconclusive: 30.9%
42 | OC(CN1CCN(C(c2ccccc2)c2ccccc2)CC1)c1ccc(Br)cc1 (stereo not given) | inconclusive: 37.1%
43 | CC1(C(=O)NS(=O)(=O)c2ccc(Cl)s2)CCN1C(=O)Cc1ccccc1Cl (stereo not given) | inconclusive: 68.5%
44 | CCOC(=O)Cc1csc(NC(=S)NC(=O)c2ccccc2C)n1 | inactive: -2.88%
45 | O=C1N(CCS(=O)(=O)c2ccccc2)Cc2ccccc2C[C@@]12N=C(c1ccc(OCCCO)cc1)O[C@H]2c1ccccc1 | inactive: -2.46%
46 | Cc1ccc(CCC(=O)Nc2ccc([N+](=O)[O-])cc2Cl)o1 | inconclusive: 22.1%
47 | O=C(CCN1C(=O)/C(=C\c2ccco2)SC1=S)Nc1ccc(C(=O)O)c(O)c1 | inactive: 18.3%
48 | CCOc1cccc(CN2CCCC(N3CCN(c4cccc(Cl)c4)CC3)C2)c1O (stereo not given) | inconclusive: 26.5%
49 | O=C(NCC[C@H]1CC[C@@H](NC(=O)c2cnccn2)[C@H](CO)O1)Nc1ccc(F)cc1 | inactive: 19.7%
50 | C=C1CCN(C(Cc2ccccc2)C(=O)OC)S(=O)(=O)c2ccc(F)cc21 (stereo not given) | inconclusive: 47.4%

Row | SMILES | CPE inhibition
51 | O=C1N(Cc2cccnc2)C[C@@H]2C[C@@H](c3cccc(OC4CCCC4)c3)N3CCC[C@@]123 | inactive: 3.66%
52 | COc1cccc(-c2ccc([C@@H]3[C@@H](CO)N4C(=O)CN(C(=O)C5CC5)C[C@@H]34)cc2)c1 | inactive: 5.89%
53 | CN(C)CCCN1c2ccccc2Sc2ccc3ccccc3c21 | active: 42.6%
54 | Cc1ccc(S(=O)(=O)N2CCCc3cc(NC(=O)c4c(F)cccc4F)ccc32)cc1 | inconclusive: 26.7%
55 | COC(=O)c1ccccc1NC(=O)CCCOc1cc(=O)n(C)c2ccccc12 | inconclusive: 30.4%
56 | Cc1[nH]c2ccccc2c1/C=N/NC(=O)c1cc(C(C)(C)C)[nH]n1 | active: 56.5%
57 | CCOCCn1ccc2c(OCC(=O)NCc3ccccc3)cccc2c1=O | inconclusive: 54.3%
58 | COCCN(C(=O)CCC(=O)Nc1ccccn1)C(C(=O)NC(C)(C)C)c1ccc(OC)cc1 (stereo not given) | inconclusive: 44.7%
59 | Cc1cc(-c2nc(C)c(-c3nnc(SCC(=O)Nc4cc(Cl)cc(Cl)c4)n3C)s2)no1 | inconclusive: 32%
60 | O=C(/C=C/c1ccc(Br)cc1)NCCCn1ccnc1 | inconclusive: 29.7%
61 | Cc1cccc(N2CCN(C(=O)C3CC(=O)N(C4CCCC4)C3)CC2)c1C (stereo not given) | inconclusive: 33.9%
62 | CCC(C)C1(C2CCCC2)NC(=O)NC1=O (stereo not given) | inconclusive: 60.4%
63 | Nc1ccccc1C(=O)NNc1c2ccccc2nc2ccccc12 | inactive: -2.24%
64 | CCN(CC)S(=O)(=O)c1ccc(C(=O)NCC(=O)N/N=C/c2ccccc2OC)cc1 | inconclusive: 25.4%
65 | CCC(=O)N1CC2(CCN(C(=O)Nc3ccc(F)cc3)CC2)c2c([nH]c3cc(OC)ccc23)[C@@H]1CO | inconclusive: 67.9%
66 | N#Cc1cccc(-c2ccc(C3[C@@H]4CN(C(=O)c5ccc6c(c5)OCO6)C[C@H]3N4)cc2)c1 (stereo not given in full) | inconclusive: 21.2%
67 | Nc1ncnc2c1ncn2C1OC(CO)C(O)C1O (stereo not given) | inconclusive: 37.9%
68 | Cc1nc(N2CCOCC2)[nH]c(=O)c1[N+](=O)[O-] | inconclusive: 23.5%
69 | Cc1ccc(C(=O)N2CCOCC2)cc1S(=O)(=O)N1CCOCC1 | inconclusive: 34.3%
70 | COc1cccc(-c2ccc3ncnc(NCc4ccc5c(c4)OCO5)c3c2)c1 | inconclusive: 33.6%
71 | COc1cc(OC)cc(-c2cc3ccc(OC)cc3cn2)c1 | inconclusive: 72.6%
72 | CO[C@@H](CN(C)S(=O)(=O)c1cn(C)cn1)[C@@H](C)CN(C(=O)Nc1ccc(F)cc1)[C@@H](C)CO | active: 23.2%
73 | COc1ccc(CNC(=O)CCNS(=O)(=O)c2ccc(NC(C)=O)cc2)cc1OC | inconclusive: 58.5%
74 | CCCNC(=O)N1[C@@H](C#N)[C@H](c2ccccc2)[C@@H]1CO | inactive: -8.39%
75 | COc1ccc(C#Cc2ccc([C@H]3[C@@H](CO)N4CCCCN(C(=O)Nc5ccc(F)cc5)C[C@H]34)cc2)cc1 | active: 31.4%

5 records drawn at random from those above, as already listed:
Row | SMILES | CPE inhibition
60 | O=C(/C=C/c1ccc(Br)cc1)NCCCn1ccnc1 | inconclusive: 29.7%
62 | CCC(C)C1(C2CCCC2)NC(=O)NC1=O (stereo not given) | inconclusive: 60.4%
63 | Nc1ccccc1C(=O)NNc1c2ccccc2nc2ccccc12 | inactive: -2.24%
66 | N#Cc1cccc(-c2ccc(C3[C@@H]4CN(C(=O)c5ccc6c(c5)OCO6)C[C@H]3N4)cc2)c1 (stereo not given in full) | inconclusive: 21.2%
64 | CCN(CC)S(=O)(=O)c1ccc(C(=O)NCC(=O)N/N=C/c2ccccc2OC)cc1 | inconclusive: 25.4%
